In US20160289309A1 one finds binding data, which are given here for one molecule.

No constants are given. Whether binding was seen depends on the method and setting. A result given as binding can be weak or reduced; the word gives no strength.

The target of this experiment is Tau in cerebrospinal fluid of cynomolgus monkeys (free Tau / extracellular Tau, eTau) (cynomolgus monkey (Macaca fascicularis)). Nature of the experiment: free-Tau ELISA on CSF of cynomolgus monkeys dosed with IPN002; the capture antibody competes with IPN002.

B1: IPN002 (antibody, V domains shown)
VH: EVHLVESGGALVKPGGSLKLSCAASGFSFSKYGMSWVRQTPDKRLEWVATISSSGSRTYYPDSVKGQFTISRDNAKNTLYLQMSSLKSEDTAMYYCSISWDGAMDYWGQGTSVTVSS
VL: DVLMTQTPLSLPVSLGDQASISCKSSQSIVHSNGNTYLEWYLQKPGQSPKLLVYKVSNRFSGVPDRFSGSGSGTDFTLKISRVEAEDLGTYYCFQGSLVPWAFGGGTKLEIK
Regarding B1, the binding entry is recorded as “binds”.
